Data as given in PubChem BioAssay AID652054 (National Center for Advancing Translational Sciences (NCATS), 2013).
“And” between values parts separate entries of the source, which are not always exact repeats. Equal values may be shown once. Out of some 360,000 compounds screened, about 9,100 (2.5%) were called active. Inconclusive results, whose numbers are uncertain, are shown with a selection of clear calls. Rule as the data show it: active = max response below about -50%; inconclusive = no clear call, values can overlap the other calls; inactive = above that.

Chains of the proteins cited; added tags and fusions are not shown.
UniProt P35462, whole entry, looked up: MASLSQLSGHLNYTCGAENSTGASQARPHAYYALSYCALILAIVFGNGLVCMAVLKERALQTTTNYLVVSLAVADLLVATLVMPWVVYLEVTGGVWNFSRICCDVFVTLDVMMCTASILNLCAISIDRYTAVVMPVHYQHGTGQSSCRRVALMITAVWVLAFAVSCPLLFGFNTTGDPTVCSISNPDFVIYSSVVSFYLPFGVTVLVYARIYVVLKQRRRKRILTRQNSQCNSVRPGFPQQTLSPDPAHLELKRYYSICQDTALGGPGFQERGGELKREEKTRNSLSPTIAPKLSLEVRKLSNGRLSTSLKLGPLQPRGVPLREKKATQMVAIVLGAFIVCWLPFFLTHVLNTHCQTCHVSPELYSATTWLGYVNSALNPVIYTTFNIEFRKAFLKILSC

molecular target: D(3) dopamine receptor (Homo sapiens) (UniProt P35462); experiment: qHTS of D3 Dopamine Receptor Antagonist: qHTS; conditions: D3R cells, DiscoveRx beta-arrestin luminescence, antagonist mode; active compounds read low
Summary of the method: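 Cells plated overnight at 1500 cells/well, then exposed to library compounds with dopamine controls for 90 minutes at 37 degrees C. DiscoveRx reagent added for 30–60 minutes at room temperature; luminescence read, quantitative HTS format.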
% is scaled to controls: 0 for no effect and ±100 for the full control effect.

SMILES	max response, negative = inhibition
COc1ccccc1OC(C)C(=O)Nc1ccc(S(=O)(=O)N2CCN(C)CC2)cc1 (configuration not stated)	inactive: 18.6%
Cc1noc(NS(=O)(=O)c2ccc(NC(=O)c3ccc(Br)o3)cc2)c1C	active: -71.6%
NC1=NOC(=O)C1C1CCCCC1 (configuration not stated)	inconclusive: -35.8%
CCCCN1C(=O)C(=O)c2cc(Cl)ccc21	active: -120%
CCN(CC)CC#CC(OC)(c1ccccc1)c1ccccc1	inconclusive: -35%
CSc1nnc(C)c(/C=C/Nc2ccc(C)cc2)n1	inconclusive: -40.8%
O=C(C1CCN(Cc2cc(Cl)ccc2O)CC1)N1CCN(Cc2ccccc2)CC1	inconclusive: -34.5%
CCN(CC)S(=O)(=O)c1ccc(-c2csc(C)n2)cc1	inactive: -4.47%
CCOC(=O)c1nc(-c2ccc3c(c2)OCO3)[nH]c1C	inconclusive: -33.9%
COc1ccc2c(c1)OC13CCN(C)CC1C2C(C(=O)c1ccc(F)cc1)C(=O)N3 (configuration not stated)	inconclusive: -33.5%
CCOc1cc2[nH]c(=S)n(CCCC(=O)NCc3ccco3)c(=O)c2cc1OCC	inactive: 21%
Cc1ccc(-c2csc3nc(SCC(N)=O)n(Cc4ccccc4)c(=O)c23)cc1	inconclusive: -33.9%
Cc1ccc(OCC(=O)NC2CCSc3ccccc32)cc1 (configuration not stated)	inconclusive: -35.5%
O=C(NCCc1ccccc1)C1CCCN1C(=O)Nc1cccc(Cl)c1 (configuration not stated)	active: -73.1%
Cc1onc(-c2ccccc2Cl)c1C(=O)N1CCN(c2cccc(Cl)c2)CC1	inconclusive: -32.5%
CN1CCN(c2nc(-c3cccnc3)nc3ccccc23)CC1	inconclusive: -31.2%
Cc1ccccc1OCCC(=O)Nc1ccc(S(=O)(=O)N(C)C2CCN(C)CC2)cc1	active: -61.4%
C[C@H](NC(=O)c1cc2c(cn1)[nH]c1ccccc12)C(=O)O	inactive: 3.55%
O=C(NCc1ccccc1C(F)(F)F)C1CC(c2ccccc2[N+](=O)[O-])=NO1 (configuration not stated)	inconclusive: -33.9%
CCC(C)(C)C1CCc2c(sc(NC(=O)c3ccccc3C(=O)O)c2C#N)C1 (configuration not stated)	inactive: 0.507%
COC(=O)N/N=C/c1cccs1	inactive: -3.64%
CC(C)Cn1c(N)c(C(=O)COC(=O)C2Cc3ccccc3CN2S(C)(=O)=O)c(=O)n(C)c1=O (configuration not stated)	inactive: 16.3%

SMILES	max response, negative = inhibition
COC(=O)[C@@]12C[C@@H](CC(=O)NCc3cccc4ccccc34)C(=O)N(Cc3ccco3)C1=CCC(C)(C)C2	inactive: -8.58%
O=C(CCC(=O)N1CCOc2ccccc21)NCCCN1CCN(Cc2ccccc2)CC1	inconclusive: -31.9%
O=C(COC(=O)C1CC(=O)N(Cc2ccco2)C1)Nc1nc(-c2ccc(F)cc2)cs1 (configuration not stated)	inconclusive: -37.6%
CCOC(=O)Cn1nnnc1C(CC)N(Cc1ccccc1)Cc1cc2cc(C)ccc2[nH]c1=O (configuration not stated)	inconclusive: -32.8%
O=c1c(-c2cccnc2)nc2ccccc2n1C(CCc1ccccc1)c1nc2ccccc2[nH]1 (configuration not stated)	inconclusive: -36.9%
Cc1ccc(S(=O)(=O)Nc2ccc3c(c2)CC(=O)N([C@H](C)CO)C[C@H](C)[C@H](CN(C)Cc2ccc4c(c2)OCO4)O3)cc1	inconclusive: -36.6%
CCOC(=O)C1C(=O)N(C(=O)c2cncc(Br)c2)CC1c1ccccc1 (configuration not stated)	inconclusive: -30.9%
CN(CC(=O)Nc1ccc(Cl)cc1)C(=O)CCc1nc2sc3c(c2c(=O)[nH]1)CCCC3	inactive: 5.75%
Cc1ccc(-c2nc3ccc(C)cn3c2CC2CCCCC2)cc1	inactive: 3.9%
Cn1cccc1/C=C1\SC(=Nc2ccc(O)cc2)NC1=O	inconclusive: -34.7%
Cc1ccnc(NC(=O)Nc2ccc(F)cc2)c1	inconclusive: -48.2%
Cc1cc(C)c2c(=N)c3ccccc3n(CCCCCCCCn3c4ccccc4c(=N)c4c(C)cc(C)nc43)c2n1	inconclusive: -43.6%
O=S(=O)(Nc1ccc(-c2nnc(SCc3ccc(Cl)cc3)o2)cc1)c1ccccc1	inactive: 9.09%
CCN1CCc2c(C#N)c(NCc3ccccc3)nc(N(CC)CC)c2C1	inconclusive: -49.5%
COc1ccc(C(=O)C=Cc2cccs2)c(O)c1	inactive: -0.107%
CC(=O)Nc1c2c3c(cccc3n(C)c1=O)C(=O)c1ccccc1-2	active: -50.6%
O=C(NNC(=S)Nc1ccccc1)NNC(=S)Nc1ccccc1	active: -69.6%
COc1cc(OC)cc(-c2c(-c3cccs3)c3cc(-c4cc(OC)c(OC)c(OC)c4)ccc3n2C)c1	inactive: 33%
O=C1/C(=C\c2ccccc2)SC(=S)N1CCC(=O)N1CCCCC1CCO (configuration not stated)	inactive: 3.55%
O=C(/C=C/c1ccccc1Cl)NC1CCCCC1	inconclusive: -31.4%
C=CCOc1ccccc1CN1CCN(CCc2ccccc2)C(CCO)C1 (configuration not stated)	inconclusive: -36.9%
CCc1ccc(Nc2ncc3c(n2)CC(c2ccc(OC)cc2)CC3=O)cc1 (configuration not stated)	inconclusive: -39.5%

SMILES	max response, negative = inhibition
CN1CCC(=O)N([C@H](CSc2ccccc2)c2ccccc2)CC1	inconclusive: -47.6%
CCCn1c(/C=C/c2cc[n+](C)cc2)nc2ccccc21	inactive: 12%
CCn1c(SCC(=O)NC2CCCC2)nnc1-c1cccnc1	inactive: -12.1%
O=C(NC(=O)N1CCN(c2ccccc2F)CC1)c1ccccc1	inconclusive: -42.3%
CC(C)(O)C#Cc1ccc(CN2CCC(CO)(CCc3ccccc3)CC2)cc1	inconclusive: -30.4%
CCCC(C)Sc1nc2c([nH]1)c(=S)n(C)c(=O)n2C (configuration not stated)	inactive: 1.8%
CCCCNC(=O)Cn1cnc2ccc(S(=O)(=O)N3CCC(C)CC3)cc2c1=O	inactive: 13.2%
O=C(N/N=C/c1ccc[nH]1)c1sc2ccccc2c1Cl	active: -64.7%
COc1ccc(CCNC(=O)[C@H](CC(C)C)NC(=O)N2CCn3c2nc2ccccc23)cc1OC	inactive: 1.49%
COc1ccc(CN2CCNC(=O)C2CC(=O)O)c(OC)c1 (configuration not stated)	inconclusive: -30.6%
Fc1cccc(CN(C2=NCCN2)c2c(Cl)cccc2Cl)c1	inconclusive: -31.7%
COc1ccc(S(=O)(=O)N2CCCCCC2)cc1C(=O)NCCc1ccccc1	inconclusive: -32.3%
CCCNC(=O)C1(C)CCCN(Cc2ccc(Cl)cc2)C1 (configuration not stated)	inactive: -1.5%
COc1ccc(/C=C/C(=O)NCCSCc2ccco2)cc1OC	inconclusive: -33.2%
CC1C/C(=C\c2cccnc2)C(=O)/C(=C/c2cccnc2)C1 (configuration not stated)	inconclusive: -34%
c1ccc(Nc2nc(NCC3CCCO3)c3ccccc3n2)cc1 (configuration not stated)	inactive: 10.2%
CCSc1nnc2n(-c3ccc(OC)cc3)c(=O)c3c4c(sc3n12)CCCC4	inconclusive: -31.1%
CN(C)CCCN1c2ccccc2Sc2ccccc21	active: -105%
CCN(CC)C(=O)[C@H]1CC(CC(=O)NCCc2ccccn2)C(=O)N2CCc3c([nH]c4ccc(OC)cc34)[C@]12C (some centres not stated)	inactive: -19%
CCOC(=O)c1cc(NC(=O)c2cccnc2)ccn1	inactive: -0.585%
O=C(CCN1C(=O)c2cccc3cccc(c23)C1=O)NCc1ccco1	inactive: -12.6%
COc1ccc(CCNC(C(=O)Nc2cc(C)cc(C)c2)c2ccccc2)cc1 (configuration not stated)	inconclusive: -33.8%

SMILES	max response, negative = inhibition
Cc1cccc(CCNC(=O)C2CCC(CNc3c(N4CCCC4)c(=O)c3=O)CC2)c1 (configuration not stated)	inconclusive: -33.2%
Cc1ccccc1NC(=O)/C=C1\SC(=O)NC1=O	inactive: -11.7%
Oc1ccc(N=Nc2n[nH]c(-c3ccccc3)n2)cc1	inactive: 13.3%
CC(=NNC(=O)c1ccccc1N)c1ccccc1O	inactive: 11.4%
COc1ccc(N2CC(O)(c3ccc(OC(F)F)cc3)[N+]3=C2CCCC3)cc1 (configuration not stated)	active: -50.2%
Cc1cc(C(C)(C)C)c(O)c(C)c1CC1=NCCN1	active: -98.4%
COc1ccccc1C(=O)NC(CCSC)C(=O)OCC(=O)N1CCCC1=O (configuration not stated)	inactive: -22.5%
Cc1ccc(S(=O)(=O)N2CCC(C(=O)Nc3ccccc3N3CCCC3)CC2)c(C)c1	inconclusive: -33.2%
O=C(NC(c1ccc(Cl)cc1)c1c(O)ccc2ccccc12)c1ccccc1 (configuration not stated)	inactive: -22.2%
C#CCOCCOCCOCCNc1nc(N2CCN(C(=O)Cn3cc(CCO)nn3)CC2)nc(N2CCN(C(=O)[C@H](Cc3ccc(O)cc3)n3cc(CCO)nn3)CC2)n1	inconclusive: -37.6%
CSc1ccc2c(c1)C(N1CCN(C)CC1)Cc1ccccc1S2 (configuration not stated)	active: -124% and active: -83.6%
COc1ccc(/C=N/NC(=O)c2ccccc2OCc2ccccc2)c(OC)c1	inactive: 10.5%
COc1ccc(OC)c(NC2=NC3(CCCCC3)N=C(N)N2)c1	active: -55.2%
O=C(CCN1CCc2ccccc2C1)Nc1ccc2c(c1)OCO2	active: -67.1%
CCN(CC)CCN(Cc1cc2ccc(C)cc2[nH]c1=O)C(=O)Nc1ccc(Cl)cc1	inconclusive: -30.7%
O=C(COc1ccc(F)cc1Br)Nc1ccccc1N1CCCC1	inactive: 7.4%
O=C(NC(C(=O)N/N=C/c1cccc2ccccc12)c1n[nH]c(=O)c2ccccc12)c1ccccc1 (configuration not stated)	inconclusive: -30.3%
Cn1c(=O)c2c(nc(NCc3ccc4c(c3)OCO4)n2Cc2ccccc2)n(C)c1=O	inactive: -1.22%
C=CCOc1ccc(C(=O)Nc2ccccc2C(=O)NCc2cccnc2)cc1	inactive: 11.8%
CCCCNC(=O)Cn1c(=O)oc2cc(S(=O)(=O)N3CC(C)CC(C)C3)ccc21 (configuration not stated)	inconclusive: -46.4%
CCS(=O)(=O)c1cc([N+](=O)[O-])c(Sc2ccccc2NC(C)=O)s1	inconclusive: -46.6%
